# Results from the supplement of paper PMC5355238.
# Structures can show the parent of a compound that is named as a salt. The list shows a part of the results. Most entries show no effect beyond the scatter of the controls.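 Using flow cytometry, the assay measures the median γH2AX antibody signal in S-phase Reh cells (a human leukemia line). Each score is the number of standard deviations from the median difference of paired plate sets. Candidate hits scored above 2.5; compounds scoring below -2 lowered MK1775-induced damage.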
# Test system: Reh
# Assay: Z' of S-phase gammaH2AX difference (drug + MK1775 minus drug alone) (Z-score); higher = stronger synergistic S-phase DNA damage with MK1775
# Details: MK1775 concentration 400 nM; first compound 10 µM; 4 h
row,Structure (SMILES),Z' of S-phase gammaH2AX difference (Z-score)
1,Cc1ccc(-c2cc(C(F)(F)F)nn2-c2ccc(S(N)(=O)=O)cc2)cc1 [Celecoxib] + C=CCn1c(=O)c2cnc(Nc3ccc(N4CCN(C)CC4)cc3)nc2n1-c1cccc(C(C)(C)O)n1 [MK1775],inactive: 0.6
2,CC(C)[N+]1(C)[C@@H]2CC[C@H]1C[C@@H](OC(=O)C(CO)c1ccccc1)C2 (stereo partly drawn) [Ipratropium bromide] + C=CCn1c(=O)c2cnc(Nc3ccc(N4CCN(C)CC4)cc3)nc2n1-c1cccc(C(C)(C)O)n1 [MK1775],inactive: 2.31
3,CNC(=O)[C@@H](NC(=O)[C@H](CC(C)C)[C@H](O)C(=O)NO)C(C)(C)C [Marimastat] + C=CCn1c(=O)c2cnc(Nc3ccc(N4CCN(C)CC4)cc3)nc2n1-c1cccc(C(C)(C)O)n1 [MK1775],inactive: 0.2
4,C[C@]12CC[C@@H]3c4ccc(O)cc4C[C@@H](CCCCCCCCC[S+]([O-])CCCC(F)(F)C(F)(F)F)[C@H]3[C@@H]1CC[C@@H]2O (stereo partly drawn) + C=CCn1c(=O)c2cnc(Nc3ccc(N4CCN(C)CC4)cc3)nc2n1-c1cccc(C(C)(C)O)n1 [MK1775],inactive: -0.0732
5,CO/N=C(\C(=O)N[C@@H]1C(=O)N2C(C(=O)O)=C(COC(C)=O)CS[C@H]12)c1csc(N)n1 [Cefotaxime sodium] + C=CCn1c(=O)c2cnc(Nc3ccc(N4CCN(C)CC4)cc3)nc2n1-c1cccc(C(C)(C)O)n1 [MK1775],inactive: 0.307
6,NC1CCN(O)C1=O (stereo not drawn) + C=CCn1c(=O)c2cnc(Nc3ccc(N4CCN(C)CC4)cc3)nc2n1-c1cccc(C(C)(C)O)n1 [MK1775],inactive: -0.317
7,NC(N)=N[C@@H](CCC(=O)O)C(=O)O [alpha-Guanidinoglutaric acid] + C=CCn1c(=O)c2cnc(Nc3ccc(N4CCN(C)CC4)cc3)nc2n1-c1cccc(C(C)(C)O)n1 [MK1775],inactive: 0.561
8,"Cc1cc(Nc2cc(N3CCN(C)CC3)nc(Sc3ccc(NC(=O)C4CC4)cc3)n2)n[nH]1 [VX-680 (MK-0457, Tozasertib)] + C=CCn1c(=O)c2cnc(Nc3ccc(N4CCN(C)CC4)cc3)nc2n1-c1cccc(C(C)(C)O)n1 [MK1775]",inactive: 0.211
9,CC(=O)Nc1nnc(S(N)(=O)=O)s1 [Acetazolamide] + C=CCn1c(=O)c2cnc(Nc3ccc(N4CCN(C)CC4)cc3)nc2n1-c1cccc(C(C)(C)O)n1 [MK1775],inactive: 0.0234
10,Nc1nc(OCc2cc(Br)cs2)c2[nH]cnc2n1 [Lomeguatrib] + C=CCn1c(=O)c2cnc(Nc3ccc(N4CCN(C)CC4)cc3)nc2n1-c1cccc(C(C)(C)O)n1 [MK1775],inactive: 0.199
11,"O=C(O)CCC(C(=O)O)N1C(=O)c2ccccc2C1=O [L-Glutamic acid, N-phthaloyl-] + C=CCn1c(=O)c2cnc(Nc3ccc(N4CCN(C)CC4)cc3)nc2n1-c1cccc(C(C)(C)O)n1 [MK1775]",inactive: -0.592
12,NC[C@@H]1O[C@H](C23CC4CC(CC(C4)C2)C3)Cc2c1ccc(O)c2O + C=CCn1c(=O)c2cnc(Nc3ccc(N4CCN(C)CC4)cc3)nc2n1-c1cccc(C(C)(C)O)n1 [MK1775],inactive: 0.0635
13,CC1CCN(CC[C@H]2CCCN2S(=O)(=O)c2cccc(O)c2)CC1 + C=CCn1c(=O)c2cnc(Nc3ccc(N4CCN(C)CC4)cc3)nc2n1-c1cccc(C(C)(C)O)n1 [MK1775],inactive: 0.349
14,COc1cc(Nc2c(C#N)cnc3cc(OCCCN4CCN(C)CC4)c(OC)cc23)c(Cl)cc1Cl [Bosutinib (SKI-606)] + C=CCn1c(=O)c2cnc(Nc3ccc(N4CCN(C)CC4)cc3)nc2n1-c1cccc(C(C)(C)O)n1 [MK1775],inactive: 0.502
15,CCC1(c2ccccc2)C(=O)NCNC1=O [Primidone] + C=CCn1c(=O)c2cnc(Nc3ccc(N4CCN(C)CC4)cc3)nc2n1-c1cccc(C(C)(C)O)n1 [MK1775],inactive: -0.301
16,O=C(O)/C=C/C(O)c1ccc(Cl)cc1 (stereo not drawn) + C=CCn1c(=O)c2cnc(Nc3ccc(N4CCN(C)CC4)cc3)nc2n1-c1cccc(C(C)(C)O)n1 [MK1775],inactive: 1.14
17,C[C@]12CCC(=O)C=C1CC[C@@H]1[C@@H]2CC[C@@]2(C)[C@H]1CC[C@]2(O)C(=O)CO [Cortexolone] + C=CCn1c(=O)c2cnc(Nc3ccc(N4CCN(C)CC4)cc3)nc2n1-c1cccc(C(C)(C)O)n1 [MK1775],inactive: 0.0631
18,COc1cc2ncnc(Nc3cccc(Br)c3)c2cc1OC + C=CCn1c(=O)c2cnc(Nc3ccc(N4CCN(C)CC4)cc3)nc2n1-c1cccc(C(C)(C)O)n1 [MK1775],inactive: 0.264
19,CN(C)CCC(c1ccc(Br)cc1)c1ccccn1 (stereo not drawn) [(?)-Brompheniramine maleate] + C=CCn1c(=O)c2cnc(Nc3ccc(N4CCN(C)CC4)cc3)nc2n1-c1cccc(C(C)(C)O)n1 [MK1775],inactive: -0.651
20,"COc1ccccc1N1CCN(CCCNc2c(C)c(=O)n(C)c(=O)n2C)CC1 [Urapidil, 5-Methyl-] + C=CCn1c(=O)c2cnc(Nc3ccc(N4CCN(C)CC4)cc3)nc2n1-c1cccc(C(C)(C)O)n1 [MK1775]",inactive: -1.64
21,CC(C)NCC(O)COc1ccc(CC(N)=O)cc1 (stereo not drawn) [(?)-Atenolol] + C=CCn1c(=O)c2cnc(Nc3ccc(N4CCN(C)CC4)cc3)nc2n1-c1cccc(C(C)(C)O)n1 [MK1775],inactive: -0.548
22,Cc1ccc([C@@H]2O[C@H](CO)[C@@H](O)[C@H](O)[C@H]2O)cc1Cc1ccc(-c2ccc(F)cc2)s1 [Canagliflozin] + C=CCn1c(=O)c2cnc(Nc3ccc(N4CCN(C)CC4)cc3)nc2n1-c1cccc(C(C)(C)O)n1 [MK1775],inactive: -0.178
23,CN1CCN(CC(=O)N2c3ccccc3C(=O)Nc3cccnc32)CC1 [Pirenzepine dihydrochloride] + C=CCn1c(=O)c2cnc(Nc3ccc(N4CCN(C)CC4)cc3)nc2n1-c1cccc(C(C)(C)O)n1 [MK1775],inactive: 0.621

# Some of the entries above in a different format:
row | Structure (SMILES) | Z' of S-phase gammaH2AX difference (Z-score)
9 | CC(=O)Nc1nnc(S(N)(=O)=O)s1 [Acetazolamide] + C=CCn1c(=O)c2cnc(Nc3ccc(N4CCN(C)CC4)cc3)nc2n1-c1cccc(C(C)(C)O)n1 [MK1775] | inactive: 0.0234
10 | Nc1nc(OCc2cc(Br)cs2)c2[nH]cnc2n1 [Lomeguatrib] + C=CCn1c(=O)c2cnc(Nc3ccc(N4CCN(C)CC4)cc3)nc2n1-c1cccc(C(C)(C)O)n1 [MK1775] | inactive: 0.199
